Reference: patent publication US20080132505A1 (Glaxo Group Limited, priority 2004, published 2008)
Some of these results come from one statement about several compounds together.

By UniProt entry, the sequences of proteins in these tests, tags left out.
UniProt P34972, whole entry: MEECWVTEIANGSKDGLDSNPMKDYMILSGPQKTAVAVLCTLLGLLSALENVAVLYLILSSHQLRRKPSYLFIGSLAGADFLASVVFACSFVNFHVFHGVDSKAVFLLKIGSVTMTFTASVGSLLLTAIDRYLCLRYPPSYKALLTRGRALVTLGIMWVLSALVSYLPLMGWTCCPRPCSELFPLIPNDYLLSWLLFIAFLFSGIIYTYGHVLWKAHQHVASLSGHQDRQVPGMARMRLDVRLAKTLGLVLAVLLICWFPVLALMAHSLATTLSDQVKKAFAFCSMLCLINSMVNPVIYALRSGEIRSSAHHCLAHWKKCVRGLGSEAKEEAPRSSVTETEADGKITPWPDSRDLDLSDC
UniProt P21554, whole entry: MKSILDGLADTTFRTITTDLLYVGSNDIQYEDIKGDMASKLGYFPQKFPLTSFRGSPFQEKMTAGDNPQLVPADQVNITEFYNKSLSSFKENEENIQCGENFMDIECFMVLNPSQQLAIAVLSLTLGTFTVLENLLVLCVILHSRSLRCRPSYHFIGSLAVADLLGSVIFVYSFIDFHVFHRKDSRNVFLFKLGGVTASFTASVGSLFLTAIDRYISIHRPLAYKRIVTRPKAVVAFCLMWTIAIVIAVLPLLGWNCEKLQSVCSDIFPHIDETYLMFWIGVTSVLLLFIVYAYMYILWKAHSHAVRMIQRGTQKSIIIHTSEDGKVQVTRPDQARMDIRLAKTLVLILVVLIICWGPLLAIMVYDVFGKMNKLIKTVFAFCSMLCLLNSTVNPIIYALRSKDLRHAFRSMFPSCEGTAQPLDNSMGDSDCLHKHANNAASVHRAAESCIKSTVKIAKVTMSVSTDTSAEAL

Legend:
[1] = target: human cannabinoid CB2 receptor (Homo sapiens, UniProt P34972); assay: Cannabinoid CB2 receptor agonist activity (yeast reporter assay, FDGlu fluorescence); type: cell-based
Protocol: Determination of Cannabinoid CB2 Receptor Agonist Activity
The cannabinoid CB2 receptor agonist activity of the compounds of formula (I)-(IV) was determined in accordance with the following experimental method.
Yeast (Saccharomyces cerevisiae) cells expressing the human cannabinoid CB2 receptor were generated by integration of an expression cassette into the ura3 chromosomal locus of yeast strain MMY23. This cassette consisted of DNA sequence encoding the human CB2 receptor flanked by the yeast GPD promoter to the 5′ end of CB2 and a yeast transcriptional terminator sequence to the 3′ end of CB2. MMY23 expresses a yeast/mammalian chimeric G-protein alpha subunit in which the C-terminal 5 amino acids of Gpa1 are replaced with the C-terminal 5 amino acids of human Gαi3 (as described in Brown et al. (2000), Yeast 16:11-22). Cells were grown at 30° C. in liquid Synthetic Complete (SC) yeast media (Guthrie and Fink (1991), Methods in Enzymology, Vol. 194) lacking uracil, tryptophan, adenine and leucine to late logarithmic phase (approximately 6 OD600/ml).
Agonists were prepared as 10 mM stocks in DMSO. […] Agonist solutions in DMSO (1% final assay volume) were transferred into black, clear bottom, microtitre plates from NUNC (96- or 384-well). Cells were suspended at a density of 0.2 OD600/ml in SC media lacking histidine, uracil, tryptophan, adenine and leucine and supplemented with 10 mM 3-aminotriazole, 0.1M sodium phosphate pH 7.0, and […] fluorescein di-β-D-glucopyranoside (FDGlu). This mixture (50 ul per well for 384-well plates, 200 ul per well for 96-well plates) was added to agonist in the assay plates (Multidrop 384, Labsystems). After incubation at 30° C. for 24 hours, fluorescence resulting from degradation of FDGlu to fluorescein due to exoglucanase, an endogenous yeast enzyme produced during agonist-stimulated cell growth, was determined using a Spectrofluor microtitre plate reader (Tecan; excitation wavelength: 485 nm; emission wavelength: 535 nm). Fluorescence was plotted against compound concentration and iteratively curve fitted using a four parameter fit to generate a concentration effect value. Efficacy (Emax) was calculated from the equation
where Max[compound X] and Min[compound X] are the fitted maximum and minimum respectively from the concentration effect curve for compound X, and Max[HU210] and Min[HU210] are the fitted maximum and minimum respectively from the concentration effect curve for (6aR,10aR)-3-(1,1′-Dimethylheptyl)-6a,7,10,10a-tetrahydro-1-hydroxy-6,6-dimethyl-6H-dibenzo[b,d]pyran-9-methanol (HU210; available from Tocris). Equieffective molar ratio (EMR) values were calculated from the equation
Where EC50 [compound X] is the EC50 of compound X and EC50 [HU210] is the EC50 of HU210.

[2] = target: human cannabinoid CB1 receptor (Homo sapiens, UniProt P21554); assay: Cannabinoid CB1 receptor agonist activity (yeast reporter assay, FDGlu fluorescence); type: cell-based; details: read-out: EC50 value at the cloned human cannabinoid CB1 receptor

| SMILES | efficacy value (Emax relative to HU210) at the cloned human cannabinoid CB2 receptor [1] [%] | EC50 [2] [µM] |
| --- | --- | --- |
| O=C(NC1CCC1)c1cnc(Nc2cccc(Br)c2)nc1C(F)(F)F [Example 47, 2-(3-Bromophenylamino)-4-trifluoromethylpyrimidine-5-carboxylic acid cyclobutylamide] | > 50 |  |
| O=C(NCC1CCCC1)c1cnc(Nc2ccc(C(F)(F)F)c(F)c2)nc1C(F)(F)F [Example 97, 2-(4-Trifluoromethyl-3-fluorophenylamino)-4-trifluoromethyl-pyrimidine-5-carboxylic acid cyclopentylmethyl-amide] | > 50 |  |
| COc1cccc(Nc2ncc(C(=O)NCC3CCCCC3)c(C(F)(F)F)n2)c1 [Example 163, 2-(3-Methoxyphenylamino)-4-trifluoromethyl-pyrimidine-5-carboxylic acid cyclohexylmethyl-amide] | > 50 |  |
| N#Cc1ccc(Nc2ncc(C(=O)NCC3CCCCC3)c(C(F)(F)F)n2)cc1 [Example 174, 2-(4-Cyanophenylamino)-4-trifluoromethyl-pyrimidine-5-carboxylic acid cyclohexylmethyl-amide] | > 50 |  |
| O=C(NCC1CCOCC1)c1cnc(Nc2cccc(Cl)c2F)nc1C(F)(F)F [Example 212, 2-(2-Fluoro-3-chloro-phenylamino)-4-trifluoromethyl-pyrimidine-5-carboxylic acid (tetrahydro-pyran-4-ylmethyl)-amide] | > 50 |  |
| O=C(NCc1ccc(F)cc1)c1cnc(Nc2cccc(Cl)c2)nc1C(F)(F)F [Example 270, 2-(3-Chlorophenylamino)-4-trifluoromethylpyrimidine-5-carboxylic acid 4-fluorobenzyl-amide] | > 50 |  |
| O=C(NCc1ccc(F)cc1)c1cnc(Nc2cccc(Br)c2)nc1C(F)(F)F [Example 289, 2-(3-Bromophenylamino)-4-trifluoromethylpyrimidine-5-carboxylic acid 4-fluorobenzyl-amide] | > 50 |  |
| COc1ccccc1Nc1ncc(C(=O)N(C)Cc2ccccc2)c(C(F)(F)F)n1 [Example 296, 2-(2-Methoxy-phenylamino)-4-trifluoromethyl-pyrimidine-5-carboxylic acid N-benzyl-N-methyl-amide] | > 50 |  |
| CC(C)c1cc(Nc2ccc(F)c(Cl)c2)ncc1C(=O)NCc1ccc(F)cc1 [Example 394, 6-(3-Chloro-4-fluoro-phenylamino)-N-(4-fluoro-benzyl)-4-isopropyl-nicotinamide] | > 50 | > 30 |
